# Results taken from paper PMC11573612 (Molecular Therapy, 2024).
# Protein sequences, listed by entry. Tags and fused reporters are not part of them. Residues count along the entry.
# UniProt Q9NZQ7, residues 19-290: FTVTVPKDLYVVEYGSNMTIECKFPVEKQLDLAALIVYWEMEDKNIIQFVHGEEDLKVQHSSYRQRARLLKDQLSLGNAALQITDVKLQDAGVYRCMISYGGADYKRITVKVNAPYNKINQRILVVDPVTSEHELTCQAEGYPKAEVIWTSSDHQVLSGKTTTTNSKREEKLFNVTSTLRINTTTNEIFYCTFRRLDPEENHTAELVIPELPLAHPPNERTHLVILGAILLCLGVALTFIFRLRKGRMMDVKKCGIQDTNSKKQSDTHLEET
# No constants are given. Whether binding was seen depends on the method and setting. In cells and extracts the contact can be indirect. Some binding calls cover weakened binding; strength is not graded here.
# B1: VSTM2A IgV domain (Δ144-240) (domain or fragment, UniProt Q8TAG5 25-143)
# chain: SQAKFTEFPRNVTATEGQNVEMSCAFQSGSASVYLEIQWWFLRGPEDLDPGAEGAGAQVELLPDRDPDSDGTKISTVKVQGNDISHKLQISKVRKKDEGLYECRVTDANYGELQEHKAQ
# Target: human PD-L1, overexpressed in cells for co-immunoprecipitation (human) (UniProt Q9NZQ7)
# Test: co-IP; co-IP with mouse Pd-l1, deletion mutants and PD-L2 (Figure 4E-H); cells, tags and antibodies not stated
binder,measurement,value
B1,binding,binds
